The other results are listed elsewhere or left out. Cut-off read from the data, not from the text of the source: active = 150% or more and inactive = the rest. Repeats are few or missing, and single values can be far off.
System: Staphylococcus aureus JE2-lux inside RAW 264.7 macrophages
Assay: intracellular bacterial bioluminescence relative to DMSO vehicle; higher = higher intracellular bacterial metabolic activity
Settings: 10 µM; treatment time 4 h; gentamicin 50 µg/ml
Method: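 RAW 264.7 macrophages infected with bioluminescent MRSA JE2-lux (MOI 100) were dispensed into 384-well plates with 10 µM compound in the presence of 50 µg/ml gentamicin. After 4 h at 37 °C, bacterial bioluminescence (a proxy for intracellular bacterial metabolic activity) and host cell viability (CellTiter-Fluor) were read and normalised to 0.1% DMSO vehicle controls. Single-pass screen of the UNC CICBDD kinase-targeted library (>4,700 compounds).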

Intracellular bacterial bioluminescence, inactive:
CC(C)CCN1C(=O)CCc2cc(NS(=O)(=O)c3ccc(F)c(Cl)c3)ccc21 120%, Cc1nn(C(C)CC(=O)NC(c2ccccc2)c2cccnc2)c(C)c1C (configuration not stated) 93.4%, Nc1ncnc(Sc2nc3ccccc3[nH]2)c1[N+](=O)[O-] 16.3%, O=C(CSc1nc2ccccc2cc1CC1CCCC1)NCc1ccccc1 103%, CCOc1ccccc1Nc1nc(-c2nnc(-c3ccc(C)cc3)o2)nc2ccccc12 119%, COc1ccc(N2C(=O)c3nccnc3C2=O)cc1OC 94.1%, Cc1sc(C)c(S(=O)(=O)N2CCc3ccccc3C2)c1-c1cc(C(F)(F)F)on1 103%, COc1ccc(NC(=O)Cn2cnc3c(cnn3-c3ccccc3)c2=O)cc1 112%, Fc1cccc(-c2nnn3c2nc(N2CCCCC2)c2cc(Cl)ccc23)c1 148%, CC(C)(C)NC(=O)C(c1cccnc1)N(C(=O)c1csnn1)c1ccc(F)cc1 (configuration not stated) 110%, CC1CCN(C(=O)c2ccc(NC(=O)C(=O)Nc3ccc(F)c(Cl)c3)cc2)CC1 80.3%, CC(C)c1ccc(Cn2c(=O)c3sccc3n3c(=S)[nH]nc23)cc1 91.6%, Cc1ccc(-n2ncc(C(=O)NCCN3CCc4ccccc4C3)c2C2CCNCC2)c(C)c1 126%, O=C(/C=C\c1ccc([N+](=O)[O-])cc1)N(Cc1cccnc1)c1nc2c(F)cc(F)cc2s1 94.7%, COc1ccc(Cl)cc1Nc1ncnc2sc(C)c(S(=O)(=O)N3CCCCC3)c12 116%, O=C(NCC1COc2ccccc2O1)c1cc2c(=O)oc3ccccc3c2s1 (configuration not stated) 114%, Cc1ccc(C)c2sc(N(Cc3cccnc3)C(=O)Cc3ccc(F)cc3)nc12 47.6%, Cc1csc(NC(=O)CSc2nnc(-c3ccccn3)n2-c2ccc(Cl)cc2)n1 68.7%, O=C(NCc1ccccc1)NC1(C(=O)NCc2ccc3c(c2)OCO3)CCCCC1 135%, Cc1c(C)n(Cc2ccccc2)c2ncn3nc(-c4ccc(Cl)cc4)nc3c12 129%, COc1cccc(Nc2nc(N)nc(CN3CCc4ccccc4C3)n2)c1 51.1%, COc1ccc(OC)c2sc(N(Cc3cccnc3)C(=O)C3COc4ccccc4O3)nc12 (configuration not stated) 94.2%, CCn1c(=O)[nH]c(=O)c2cnc(-c3ccc(Cl)cc3)nc21 135%, O=C(Nc1nc2c(F)cc(F)cc2s1)c1ccc2ccccc2c1 92.1%, COC(=O)C(Cc1ccc(O)cc1)NC(=O)CCOc1ccc(OC)cc1 (configuration not stated) 129%, COc1ccc2cc(CCNC(=O)CCC3CCCC3)c(=O)[nH]c2c1 68%, COc1ccc(-n2c(N)cc(=O)nc2SCC(=O)N2CCCc3ccccc32)cc1 121%, Cc1ccc(CNC(=O)C(C)C2CCN(C(=O)c3cc4ccccc4[nH]3)CC2)cc1 (configuration not stated) 34.9%, CC/N=C1\S/C(=C2\C(=O)Nc3ccccc32)C(=O)N1CC 104%, CC(=O)Nc1cc(-c2noc(-c3ccsc3)n2)ccc1-n1ccnc1 91.5%, COc1ccccc1-c1cc(C(=O)NCc2ccccc2)c2c(-c3ccccc3)[nH]nc2n1 87.6%, COc1ccccc1N1CCN(C(=O)Cn2cnc3onc(-c4ccc(C)cc4)c3c2=O)CC1 108%, Cn1c(=O)c2c(nc(S)n2Cc2ccc(F)cc2)n(C)c1=O 114%, CCN1CCN(c2nc3ncn(CC(=O)NCc4ccccc4Cl)c(=O)c3s2)CC1 94.9%, O=C(CSc1nnc2c(n1)-c1cccc3cccc-2c13)Nc1cc(Cl)ccc1Cl 104%, CCc1nc(SCC(=O)NCC2CCCO2)c2c(=O)n(C)c(=O)n(C)c2n1 (configuration not stated) 110%, C=CCOc1ccccc1NC(=O)c1ccnc2ccc(Cl)cc12 96.7%, CCn1nc(C)c(CCNC(=O)c2cc3c(=O)n(CCOC)ccc3nc2C)c1C 142%, CN1C(=O)N(C(=O)c2ccc(F)cc2F)c2cccnc2N1C 90.1%, Nn1c(SCc2cccc(Cl)c2)nncc1=O 67.3%, CCOc1ccccc1Nc1nc(C)nc2c1c(C)c(C)n2-c1ccccc1 103%, O=C(Nc1cccnc1)C(=O)Nc1cccc2ccccc12 90.7%, Cc1ccc(-n2nnc3c(SCC(=O)Nc4ccc(C)c(Cl)c4)ncnc32)cc1 105%, COc1ccc(CNC(=O)c2cnc3cc4c(cc3c2O)OCCO4)cc1 89.9%, CCOc1cc(/C=N/Nc2ncnc3[nH]cnc23)ccc1O 101%, Cc1ccc(S(=O)(=O)N2CCCc3ccc(NS(=O)(=O)c4ccc(F)cc4C)cc32)cc1 86.8%, C=CCc1cccc2cc(C(N)=O)/c(=N\Cc3ccccc3)oc12 103%, Cc1ccc(-c2noc(CCC(=O)Nc3ccc(CCc4nc5cc(C)ccc5[nH]4)cc3)n2)cc1 103%, CCOC(=O)COc1ccccc1C1CC(c2ccccc2)=NN1C(=O)c1cccs1 (configuration not stated) 90.6%, CC(C)c1ccc2nc3sc(C(=O)NCC4CCCO4)c(N)c3cc2c1 (configuration not stated) 112%, Cn1c(NC(=O)/C=C\c2ccccc2)cc(=O)n(C)c1=O 109%, CCCc1cc(CNC(=O)c2c(-c3ccncc3)noc2C)on1 103%, Cc1ccc(-n2c(=O)c3cccnc3n2CC(=O)N2CCCCC2C)cc1 (configuration not stated) 77.9%, COc1ccc2c(c1OC)C(=O)OC2Nc1cccc(F)c1 (configuration not stated) 106%, CCN1CCN(CC(=O)NC2CCCC2)C(=O)C1=O 110%, Cc1ccccc1-n1c(C)c(C)c2c1ncn1nc(-c3ccccc3O)nc21 92%, COc1ccc(Cl)c(NC(=O)c2sc3nc(-c4cccnc4)ccc3c2N)c1 106%, O=C(c1ccc2c(c1)OCO2)N1CCN(c2ccc(Nc3cccnc3)nn2)CC1 94.2%, Cc1cc(=O)[nH]c(SCc2ccc(C(=O)Nc3nccs3)cc2)n1 88.3%, O=C(CSC1=NS(=O)(=O)c2cc(F)ccc2N1)NCc1ccccc1Cl 102%, CCc1nnc2ccc(C(=O)N3CCN(c4ccccn4)CC3)cn12 97.3%, Cn1c2ccccc2c2nnc(SCC(=O)Nc3ccc(NC(=O)C4CC4)cc3)nc21 102%, Cc1cc2oc(=O)cc(-c3cc4ccccc4o3)c2cc1OC(=O)C1CC1 122%, CCN1CCN(C(=O)C2CCN(C3=NS(=O)(=O)C(c4ccc(OC)cc4)=C3C)CC2)CC1 84.9%, COc1ccc(CCNc2ncnc3oc4c(c23)CCCC4)c(OC)c1 104%, CC(=O)c1ccc(OCC(O)CN2CCc3ccccc3C2)cc1 (configuration not stated) 82.4%, N#Cc1c(NC(=O)C2CC(=O)NN2Cc2ccccc2)sc2c1CCCC2 (configuration not stated) 65.4%, Cc1nnc2sc(SCC(=O)Nc3ccc(Cl)cc3)nn2c1=O 99.6%, COC(=O)c1nn(-c2ccc3c(c2)CCN3C(C)=O)cc1O 125%, N#Cc1cc2cc3c(cc2nc1NCCCNC(=O)COc1ccccc1)OCO3 82.6%, Cc1ccc(/C=C/c2nc3ccccc3[nH]c2=O)cc1 40.9%, O=C(Oc1ccc2oc(=O)cc(-c3cc4ccccc4o3)c2c1)c1cccs1 142%, Cc1ccc(Cc2nnc(SCC(=O)Nc3cccc(Cl)c3C)n(N)c2=O)cc1 110%, CCCCC(=O)Nc1cnc(N2CCN(c3ccccn3)CC2)c(C(=O)O)c1 101%, CCS(=O)(=O)N1CCCC(C(=O)NCC2CCCO2)C1 (configuration not stated) 121%, CCS(=O)(=O)N1CCC(Nc2nc3c(c(=O)[nH]2)CCCC3)CC1 113%, Cc1ccc(NC(=O)CSc2nc3cc(C)cc(C)c3cc2C#N)c(Br)c1 103%, CCn1c(C)cc2cc(NC(=O)c3cc(C4CC4)nn3C)ccc21 26.3%, COc1cc(C(=O)NNc2nc3c(OC)ccc(OC)c3s2)cc(OC)c1OC 118%, O=C(CSc1nc2sc3c(c2c(=O)n1Cc1ccco1)CCC3)Nc1nccs1 87%, O=C(OCCNC1=C(Cl)C(=O)c2ccccc2C1=O)c1ccccc1 40.1%, O=[N+]([O-])c1ccc2sc(SCc3nc4ncccn4c3Br)nc2c1 30.2%, CCS(=O)(=O)c1ccccc1C(=O)Nc1ccc2nc(C)sc2c1 102%, O=C(Nc1nc2ccc3ccccc3c2s1)c1ccc(S(=O)(=O)N2CCc3ccccc32)cc1 104%, Cc1cccc(N2CCN(c3nccnc3SCC(=O)Nc3ccccc3Cl)CC2)c1C 62.4%, COC(=O)c1cc(Nc2nc(C)nc3sc4c(c23)CCC4)cc(C(=O)OC)c1 117%, CSc1ncc(C(=O)NC(c2ccccc2)c2cccnc2)cn1 (configuration not stated) 116%, Cc1ccc(-c2nc(C(N)=O)c3[nH]c(=O)n(C(C)C)c3n2)cc1C 109%, O=C(CN(C(=O)C(=O)Nc1ccc2c(c1)OCCO2)N1CCOCC1)NC1CCCC1 128%, COc1ccc(NC(c2ccccn2)c2oc(CO)cc(=O)c2O)cc1 (configuration not stated) 102%, COc1ccc2c(c1)c(=O)c(Br)c(C)n2CC(=O)Nc1cccc(C)c1 103%, Cc1cc(O)c(C(c2ccncc2)N2CCC(C)CC2)c(=O)n1Cc1ccco1 (configuration not stated) 112%
